Results as given in publication PMC3397946, “Identification and Characterization of the Cognate Anti-Sigma Factor and Specific Promoter Elements of a T. tengcongensis ECF Sigma Factor”.
Residue numbers refer to the chain shown, from its start. Weaker means in comparison with the reference protein, sequence or condition of that experiment. Protein sequences can lack the tags named with them. For part of these data: For at least one entry, the source does not settle the construct or the ends of the probe. For part of these data: At least one verdict rests on a figure or table, not on a statement of the authors.

Legend:
[1] = molecular target: T1, Tt-RpoE1 (Thermoanaerobacter tengcongensis MB4T) (UniProt Q8RCT7); assay: EMSA; details: 50 mM Tris-HCl pH 8.0, 10 mM MgAc2, 30 mM NaCl, 1 mM DTT, 5% glycerol, 30 ug/ml BSA, 0.5 mM EDTA, 1 ug poly(dI-dC), 20 fmol probe in 20 ul, 25 C, 20 min, recombinant protein, residues 1-162, protein details: His (pET28a)
T1 sequence (looked up): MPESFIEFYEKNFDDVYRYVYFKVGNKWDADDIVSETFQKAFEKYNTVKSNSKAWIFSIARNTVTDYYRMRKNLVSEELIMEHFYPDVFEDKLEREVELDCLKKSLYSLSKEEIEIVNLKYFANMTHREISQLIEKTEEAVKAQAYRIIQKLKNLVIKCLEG

[2] = molecular target: T2, Tt-RpoE1 D66A (Thermoanaerobacter tengcongensis MB4T) (UniProt Q8RCT7); assay: EMSA; details: 5 uM protein, 50 mM Tris-HCl pH 8.0, 10 mM MgAc2, 30 mM NaCl, 1 mM DTT, 5% glycerol, 30 ug/ml BSA, 0.5 mM EDTA, 1 ug poly(dI-dC), 20 fmol probe in 20 ul, 25 C, 20 min, recombinant protein, residues 1-162, protein details: His (pET28a), label: 5'-32P top strand, letters put together from the description
T2 sequence (looked up): T1 sequence (looked up) with D66A

[3] = 5 uM protein, label: 5'-32P top strand
[4] = 5 uM protein, almost abolished, label: 5'-32P top strand
[5] = 5 uM protein, almost abolished, label: 5'-32P top strand, letters put together from the description

GTTTACCTTTTGTGTAGATTTTCGTCTATAAAGGTG / GACGAAAATCTACACAAAAGGTAAAC [D-5-M2 (-35TG-34 to GT)]
binding result [1, 3]: binds more weakly

CACCTTTATAGACGAAAATCTACACAAAAGGTAACAATACC [ssBot]
binding result ([1]; 5 uM protein, much weaker band, label: 32P, single-stranded DNA): binds more weakly

TGTTACCTTTTGTGTAGATTTTCTTCTATAAAGGTG / AGAAAATCTACACAAAAGGTAACA [D-5-B2G (-12G to T)]
binding result [1, 4]: binds more weakly

GGTATTGTTACCTTTTGTGTAGATTTTCGTCTATAAAGGTG [ssTop (T+1)]
binding result ([1]; 5 uM protein, label: 5'-32P, single-stranded DNA): binds more weakly

TGGTACCTTTTGTGTAGATTTTCGTCTATAAAGGTG / GACGAAAATCTACACAAAAGGTACCA [D-5-3t (-33T to G)]
binding result [1, 3]: binds more weakly

GGTATTGTTACCTTTTGTGTAGATTTTCGTCTATAAAGGTG (double strand) [T+1/B+1]
binding result ([1]; weak, only at 25 uM protein, label: 5'-32P top strand): binds more weakly

TGTTACCTTTTGTGTAGATTTTTTTCTATAAAGGTG / AAAAAATCTACACAAAAGGTAACA [D-5-BM1 (-13CG-12 to TT)]
binding result [1, 3]: binds more weakly

GTGGACCTTTTGTGTAGATTTTCGTCTATAAAGGTG / GACGAAAATCTACACAAAAGGTCCAC [D-5-M3 (-35TGTT-32 to GTGG)]
binding result [1, 3]: binds more weakly

TGTGGCCTTTTGTGTAGATTTTCGTCTATAAAGGTG / GACGAAAATCTACACAAAAGGCCACA [D-5-M4 (-32TA-31 to GG)]
binding result ([1]; 5 uM protein, stronger decrease than other doubles, label: 5'-32P top strand): binds more weakly

TGTTACCTTTTGTGTAGATTTTCGTCTATAAAGGTG / CGAAAATCTACACAAAAGGTAACA [D-5/-12]
binding result ([2]; strongly decreased): binds more weakly

TGTTACCTTTTGTGTAGATTTTCGTTTATAAAGGTG / CGAAAATCTACACAAAAGGTAACA [D-5-b4c/-12 (-10C to T)]
binding result ([2]; defect not cured): binds more weakly
binding result [1, 5]: binds more weakly

TTTTGTGTAGATTTTCGTCTATAAAGGT / GACGAAAATCTACACAAAA [D-12/-10]
binding result [1, 4]: binds more weakly

TGTTACCTTTTGTGTAGATTTTCGCCTATAAAGGTG / CGAAAATCTACACAAAAGGTAACA [D-5-B3T/-12 (-11T to C)]
binding result ([2]; defect not cured): binds more weakly
binding result [1, 5]: binds more weakly

GGTATTGTTACCTTTTGTGTAGATTTTCGTCTATAAAGGTG / GAAAATCTACACAAAAGGTAACAATACC [T+1/B-13]
binding result [1, 3]: binds more weakly

ACCTTTTGTGTAGATTTTCGTCTATAAAGGTG / GACGAAAATCTACACAAAAGGT [D-9/-10]
binding result ([1]; 5 uM protein, strong decrease, label: 5'-32P top strand): binds more weakly

TTTTACCTTTTGTGTAGATTTTCGTCTATAAAGGTG / GACGAAAATCTACACAAAAGGTAAAA [D-5-2G (-34G to T)]
binding result [1, 3]: binds more weakly

TGTTACCTTTTGTGTAGATTTTTTTTTATAAAGGTG / AAAAAATCTACACAAAAGGTAACA [D-5-BM2 (-13C,-12G,-10C to T)]
binding result [1, 3]: binds more weakly

TGGGACCTTTTGTGTAGATTTTCGTCTATAAAGGTG / GACGAAAATCTACACAAAAGGTCCCA [D-5-M1 (-33TT-32 to GG)]
binding result [1, 3]: binds more weakly

TGTTGCCTTTTGTGTAGATTTTCGTCTATAAAGGTG / GACGAAAATCTACACAAAAGGCAACA [D-5-5a (-31A to G)]
binding result [1, 3]: binds more weakly
